Results reported in patent US8592367B2, “Nodule specific medicago peptides having antimicrobial activity and pharmaceutical compositions containing the same” (priority 2009, dated 2013).
“Also recorded” adds a separate entry of the source. For at least one compound, name, drawing or mass did not settle the structure.

System: Sinorhizobium meliloti
Experiment: Fast antibiotic activity (surviving bacteria, CFU after 3 hours)
Assay type: cell-based
Conditions: peptides 10 μM, tetracycline, kanamycin 10 or 100 μM, 10^7 bacteria

| Structure (SMILES) | killing / eradication of bacteria in 3 hours | killing / eradication of bacteria in 3 hours (listed as tetracyclin) |
| --- | --- | --- |
| CN(C)[C@@H]1C(O)=C(C(N)=O)C(=O)[C@@]2(O)C(O)=C3C(=O)c4c(O)cccc4[C@@](C)(O)[C@H]3C[C@@H]12 [Tetracycline, tetracycline] | unable to kill bacteria | cannot eradicate the sensitive bacteria |
| NC[C@H]1O[C@H](O[C@H]2[C@H](O)[C@@H](O[C@H]3O[C@H](CO)[C@@H](O)[C@H](N)[C@H]3O)[C@H](N)C[C@@H]2N)[C@H](O)[C@@H](O)[C@@H]1O [kanamycin] | unable to kill bacteria; also recorded: cannot eradicate the sensitive bacteria | – |
